Here are results for 57 compounds from PubChem BioAssay AID2685 (National Center for Advancing Translational Sciences (NCATS), 2010).

This is one part of the list. These are further read-outs of the screen, such as a control signal, another cell line or another target. No call is given for them. Most of these compounds were active or inconclusive in the main read-out, so they are no random draw. Potencies come from curve fits of mixed quality, noted in brackets.

The nature of this assay: qHTS Assay for Lipid Storage Modulators in Drosophila S3 Cells.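 For cell number change: cells counted by Cell Tracker Red CMTPX staining in the red channel.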 The note with it: BODIPY lipid droplet fluorescence, 18-24 h; for cell number change: measured here: cell count max response, cells fed with added oleic acid. In a few lines: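 Laser-scanning cytometry quantifies lipid droplet accumulation (500–530 nm total intensity; droplet/cell object ratio) in oleic acid-fed (400 uM added) Drosophila S3 cells treated with a concentration series. 20 uM Triacsin C defined 100% inhibition.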
A general note: In qHTS, concentration-response curves come from the screen itself.

Where [1] appears, read: measured here: lipid fluorescence (Fed channel) AC50, cells fed with added oleic acid.
The mark [2] stands for this setting: measured here: cell number channel AC50, cells fed with added oleic acid.

For `CN(CC1CCN(CCc2cccc(C(F)(F)F)c2)CC1)C(=O)c1ccc(F)cc1F`, the cell number change was found to be 9.59%.

For orientation: AC50 means the midpoint of the concentration-response curve, whichever way the signal moves. Take `Cc1c(C=O)c2ccccn2c1C(=O)c1cccc([N+](=O)[O-])c1`: the cell number change is -17.2%. Further, the concentration at half-maximal activity (AC50) under setting [1] was 0.146 µM [rising, full curve, poor fit].

For `O=C(/C=C/c1ccccc1)NC(NC(=S)Nc1cccc(Cl)c1)C(Cl)(Cl)Cl` (configuration not stated), the cell number change was -7.96%. The AC50 under setting [1] was 29.1 µM [falling, single point].

As to `Cc1ccccc1N(C(=O)CNC(=O)c1ccco1)C(C(=O)NC1CCCCC1)c1cccnc1` (configuration not stated), the cell number change came to 3.91%. In addition, the AC50 under setting [1] is 0.58 µM [rising, single point].

In the case of `O=C(CN(C(=O)CCC(=O)Nc1nccs1)c1ccc2c(c1)OCO2)NCc1ccc(F)cc1`, the cell number change was found to be 52.1%. Further, the AC50 under setting [2] was 32.6 µM [rising, single point].

Turning to `CCN(CC)S(=O)(=O)c1ccc(Oc2ccc(S(=O)(=O)N(CC)CC)cc2)cc1`, the cell number change is -13.6%. Moreover, under setting [1], the AC50 is 4.11 µM [rising, partial curve].

Consider `NNC(=O)c1nc(-c2ccccc2)cc(-c2ccccc2)n1`, for which the cell number change is -5.67%.

Consider `O=C(Cn1cccc1)Nc1ccc(F)cc1F`, for which the cell number change is -31.9%.

Take `CCC(=O)c1cn(/C(=C\C(=O)OC(C)(C)C)CCC(OC)OC)cc1CC`: the cell number change is -14.9%. Under setting [2], the AC50 is 0.164 µM [falling, full curve, poor fit]. Under setting [1], the AC50 is 0.146 µM [falling, full curve, poor fit].

Consider `CC(C)(C)c1cc(-c2nc(N)nc(N)n2)c(O)c(C(C)(C)C)c1`, for which the cell number change is -87.9%. Further, under setting [2], the AC50 is 9.2 µM [falling, partial curve]. In addition, the AC50 under setting [1] is 7.31 µM [falling, full curve, poor fit].

In the case of `Cc1cc(C)c[n+](CC(=O)c2cc3ccccc3oc2=O)c1`, the cell number change was -26.2%.

For the compound `CCn1c([N+](=O)[O-])nc2c1c(=O)[nH]c(=O)n2C`, the cell number change was -50.4%. In addition, under setting [2], the AC50 is 0.58 µM [falling, full curve]. For the same compound, the AC50 under setting [1] was 5.8 µM [falling, full curve].

In the case of `N#CC1=C(N)NC(SCc2ccccc2)=C(C#N)C12CCCC2`, the cell number change was 31.1%. Moreover, the AC50 under setting [2] was 0.366 µM [rising, partial curve]. For the same compound, the AC50 under setting [1] is 4.61 µM [rising, partial curve, poor fit].

In the case of `COc1ccc(CCNc2ncnc3c2[nH]c2cc(OC)c(OC)cc23)cc1OC`, the cell number change was -43.2%. The AC50 under setting [2] was 13 µM [falling, partial curve, poor fit]. For the same compound, under setting [1], the AC50 was 25.9 µM [falling, partial curve].

`CCCc1nc2ccccc2c(C(=O)OC(C)C(=O)NCc2ccc3c(c2)OCO3)c1CC` (configuration not stated): the cell number change stood at 81.7%. Besides, the AC50 under setting [2] was 0.058 µM [rising, full curve, poor fit]. In addition, the AC50 under setting [1] was 29.1 µM [rising, single point].

Regarding `COc1ccc(CCNC(=O)Cc2ccc([N+](=O)[O-])cc2)cc1OC`, the cell number change is -30.6%. Further, the AC50 under setting [2] is 25.9 µM [falling, single point]. For the same compound, the half-maximal activity concentration (AC50) under setting [1] is 32.6 µM [falling, single point].

Take `COC(=O)Cn1c(=NC(=O)C(C)C)sc2c(C)cc(C)cc21`: the cell number change is 4.85%. Besides, the AC50 under setting [1] is 0.00517 µM [rising, full curve, poor fit].

Regarding `COc1ccc2c(c1)CC/C2=N\NC(=O)c1ccccc1`, the cell number change was 15.9%. For the same compound, the AC50 under setting [1] was 2.91 µM [rising, partial curve].

In the case of `COc1cc(C(=O)NCc2ccccn2)ccc1OCc1c(C)noc1C`, the cell number change came to 176%. Under setting [2], the AC50 was 16.4 µM [rising, partial curve]. For the same compound, the AC50 under setting [1] is 0.651 µM [rising, single point].

Consider `O=C(CNC(=O)c1ccco1)OCc1ccc(Br)cc1`, for which the cell number change came to 31.4%.

Consider `Cn1c(C2CC(=O)N(Cc3ccccc3)C2)nc2ccccc21` (configuration not stated), for which the cell number change was 0.368%. Also, the AC50 under setting [2] was 0.731 µM [falling, full curve, poor fit]. The AC50 under setting [1] was 25.9 µM [falling, single point].

With `COC1=CC(=O)CC(C)C12Oc1cc(OC)cc(OC)c1C2=O` (configuration not stated), the cell number change came to 0.161%. For the same compound, under setting [1], the AC50 was 0.0259 µM [falling, full curve, poor fit].

As for `COc1cc2c(cc1OC)CN(C(=S)NC(=O)c1ccccc1)CC2`, the cell number change is -45.3%. Also, under setting [2], the AC50 was 2.59 µM [falling, full curve]. The AC50 under setting [1] is 14.6 µM [falling, partial curve, poor fit].

Consider `CNC(=O)c1c(NC(=O)C2=COCCO2)sc2c1CCCC2`, for which the cell number change was -11.8%. Under setting [1], the AC50 is 32.6 µM [falling, single point].

As for `CCCCCCCNC1=CC(=O)CC(c2ccco2)C1` (configuration not stated), the cell number change was -17.4%. Moreover, the AC50 under setting [1] was 20.6 µM [falling, single point].

In the case of `Cc1ccccc1OCCC(=O)OCC(=O)NCCc1ccc(S(N)(=O)=O)cc1`, the cell number change was -11.4%. The AC50 under setting [1] was 0.206 µM [falling, full curve, poor fit].

Take `CCOC(=O)[C@H]1[C@H]2COc3ccc(Br)cc3[C@@H]2N2C(=O)CN(Cc3ccccc3)C(=O)[C@@]12C`: the cell number change is -1.62%. Also, the AC50 under setting [1] is 9.2 µM [falling, single point].

With `Cc1ccc(C(=O)O/N=C/c2c(C(F)(F)F)nn(C)c2Sc2ccc(Cl)cc2)cc1`, the cell number change came out at 35.7%. Moreover, the AC50 under setting [2] is 9.2 µM [rising, partial curve]. In addition, the AC50 under setting [1] was 0.517 µM [falling, single point].

As for `O=C(NCCc1ccccc1)C(=S)N1CCCCC1`, the cell number change amounted to 7.54%. Also, under setting [2], the AC50 is 6.51 µM [falling, single point]. The AC50 under setting [1] is 0.00517 µM [falling, full curve, poor fit].

Consider `O=C(O)C(Cc1c[nH]c2ccccc12)NS(=O)(=O)c1ccc(Cl)cc1` (configuration not stated), for which the cell number change is -31.7%. In addition, under setting [2], the AC50 is 0.00461 µM [falling, full curve, poor fit]. Under setting [1], the AC50 was 0.013 µM [falling, full curve, poor fit].

For the compound `O=C(Nc1nccs1)c1cn(-c2ccccc2)nc1-c1ccncc1`, the cell number change was -39.7%.

For `CCOC(=O)c1ccc(N2C(=O)Cc3ccccc3C2=O)cc1`, the cell number change is -1.9%.

For the compound `COc1ccc([N+](=O)[O-])cc1NC(=O)CSCc1ccc(Br)cc1`, the cell number change was determined as 6.33%. Further, the AC50 under setting [1] is 3.66 µM [rising, partial curve, poor fit].

Consider `COc1ccc(-c2nnc(SCC(=O)Nc3ccc4c(c3)OCCO4)n2N)cc1OC`, for which the cell number change was -2.07%.

As to `O=C(C[n+]1cccc(C(=O)N/N=C/c2cccc([N+](=O)[O-])c2)c1)c1ccccc1`, the cell number change was -6.73%.

Take `CCCn1c(-c2ccc(F)cc2)cnc1SCC(=O)O`: the cell number change was -79.5%. For the same compound, the AC50 under setting [2] is 20.6 µM [falling, single point].

Regarding `COc1ccccc1N1CCN(C(=O)CSc2nnc3n2C(C)(C)Cc2ccccc2-3)CC1`, the cell number change is -16.1%. Moreover, the AC50 under setting [1] is 0.731 µM [rising, full curve, poor fit].

With `Cc1ccccc1NC(=O)COC(=O)c1ccc2nc(C)c(C)nc2c1`, the cell number change worked out at 52.7%. In addition, the AC50 under setting [2] is 32.6 µM [rising, single point].

Consider `COc1cc2c(C(=O)N3CCN(C4CCCCC4)CC3)cn(CC(C)C)c(=O)c2cc1OC`, for which the cell number change is -0.84%. The AC50 under setting [1] is 0.731 µM [rising, single point].

Take `CNC(=O)c1ccc(Nc2nnc(-c3ccc(C)c(S(=O)(=O)NCC4CCCO4)c3)c3ccccc23)cc1` (configuration not stated): the cell number change came to 25.5%. For the same compound, the AC50 under setting [1] was 20.6 µM [rising, single point].

Consider `COc1cc2c(cc1OC)C(NC(=O)C(F)(F)F)C/C2=N\O` (configuration not stated), for which the cell number change was found to be 18.5%.

`CCN(CC(=O)Nc1ccc(C)c(F)c1)CC(=O)NC(C)(C)C`: the cell number change is 33.3%. The AC50 under setting [2] is 6.51 µM [rising, full curve, poor fit]. Also, the AC50 under setting [1] is 14.6 µM [rising, single point].

As for `O=C(O)CC(Sc1n[nH]c(=S)s1)C(=O)O` (configuration not stated), the cell number change was determined as 30.5%. Further, the concentration at half-maximal activity (AC50) under setting [2] was 1.64 µM [rising, full curve, poor fit].

For `COC(=O)CN=Cc1c(O)n(-c2ccc(Cl)cn2)c(=O)c2ccccc12`, the cell number change was determined as 33.6%.

Regarding `CN(C)S(=O)(=O)c1ccc(SCC(=O)Nc2ccc3c(c2)OCCO3)nc1`, the cell number change was found to be 17.7%.

For `CC(C(=O)N1CCCC1)N1CCN(c2ccccc2O)CC1` (configuration not stated), the AC50 under setting [2] is 0.092 µM [rising, partial curve, poor fit].

For `CCCCNC(=O)CSc1nc2cc(OC)c(OC)cc2c(=O)n1Cc1ccc(OC)cc1`, the cell number change is -11.4%.

`CCC(C)NC(=O)CCC(=O)NNc1nc2ccccc2c2nc(C)nn12` (configuration not stated): the cell number change is -26.6%. The AC50 under setting [2] was 3.66 µM [falling, full curve, poor fit]. Moreover, under setting [1], the AC50 was 1.84 µM [rising, partial curve].

Consider `CCOC(=O)c1ccc2nc(C)c(CC)c(Cl)c2c1`, for which the cell number change is -9.23%. In addition, the AC50 under setting [1] is 0.164 µM [rising, full curve, poor fit].

For `Cc1ccc(C2=NS(=O)(=O)N(C)C(C(=O)NCc3cccs3)=C2)cc1`, the cell number change was -0.576%. Besides, the AC50 under setting [1] was 0.0259 µM [falling, full curve, poor fit].

As for `COC(=O)c1c(NC(=O)CC2SC(N)=NC2=O)sc2c1CCC(C(C)(C)C)C2` (configuration not stated), the cell number change was -86.9%. Besides, under setting [2], the AC50 is 1.64 µM [falling, full curve]. In addition, the AC50 under setting [1] is 25.9 µM [falling, partial curve].

For `COC(=O)Nc1ccc(NC(C)=O)cc1`, the cell number change was -6.85%. The AC50 under setting [1] is 29.1 µM [falling, single point].

With `CCOc1ccc(NS(=O)(=O)c2ccc(NS(=O)(=O)c3ccccc3)cc2)cc1`, the cell number change is -1.32%. Also, under setting [1], the AC50 is 1.46 µM [rising, full curve, poor fit].

As for `CC1(C)CC(=O)C2=C(C1)N(c1ccc(Cl)cc1)C(=O)C2(O)C(F)(F)F` (configuration not stated), the cell number change was -12.5%. Also, the AC50 under setting [1] is 0.461 µM [falling, single point].

For `CCOC(=O)C(=O)N=Nc1c(O)[nH]c2ccccc12`, the cell number change was determined as 2.7%. The AC50 under setting [1] was 0.116 µM [falling, single point].

`CCOc1ccccc1CSc1nc2ccccc2[nH]1`: the cell number change was found to be 18.6%. Moreover, under setting [1], the AC50 was 11.6 µM [rising, single point].

On to `C/C(=N/NC(=O)c1ccoc1C)c1ccc(NC(=O)c2ccncc2)cc1`, for which the cell number change came to 32.9%. Also, the AC50 under setting [2] was 2.06 µM [rising, full curve, poor fit]. In addition, under setting [1], the AC50 is 29.1 µM [rising, partial curve, poor fit].
